# PubChem BioAssay AID1259290, Sanger Institute, 2017
# Purpose: 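siRNA screen across the kinome seeking synthetic lethal partners for BYL719, cetuximab or trametinib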 (primary screen)
# Cell system: human SNUC1 colorectal cancer cells
# Reagent: siRNA pool against human genes
# Treatment: anchor drugs BYL719 1 µM, cetuximab 5 µg/ml or trametinib 10 nM, or DMSO vehicle alone
# Read-out: 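Viability averaged over replicates and scaled to non-targeting siRNA, robust z-score with no drug, and synergy scores by drug for BYL719, cetuximab and trametinib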
# Scale: viability z-score, siRNA alone: higher = more viable cells; low values mean essential gene; viability vs control, siRNA alone: higher = more viable cells; synergy score with BYL719 and synergy score with Cetuximab and synergy score with Trametinib: higher = stronger synthetic lethal effect with drug
# Rule for the call: 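Essential when the robust viability z-score with siRNA alone falls below -3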
# Calls: active = essential: knock-down alone cut viability (z below -3); inactive = no clear viability loss with knock-down alone
# Shown is a random part of 794 reagents. 9 of all reagents (1.1%) were called active. 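Calls rest on knock-down alone, not drug synergy; synergy above 0.15 was grouped apart and does not affect calls.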 Entries without a mark were called inactive. No viability above 1 is reported: the scale is capped. Reagent sequences are not shown. Not stated in the record: the amount of reagent, the time to read-out.
The first 2 records, ahead of the listing:
Target gene,PubChem SID,"viability z-score, siRNA alone","viability vs control, siRNA alone",synergy score with BYL719,synergy score with Cetuximab,synergy score with Trametinib
CREBBP,SID152156768,0.746,0.983,-0.15,0.018,0.0823
AK3,SID56479080,0.598,0.97,-0.0585,-0.058,0.0133

Main list, repeating the preview:
Target gene,PubChem SID,"viability z-score, siRNA alone","viability vs control, siRNA alone",synergy score with BYL719,synergy score with Cetuximab,synergy score with Trametinib
CREBBP,SID152156768,0.746,0.983,-0.15,0.018,0.0823
AK3,SID56479080,0.598,0.97,-0.0585,-0.058,0.0133
DCLK1,SID56478913,-0.687,0.854,-0.191,-0.0718,-0.052
ELP1,SID56479224,0.779,0.986,-0.117,-0.0023,0.0225
MAPK7,SID56478666,0.538,0.964,-0.159,0.06,0.011
PKN1,SID56478783,0.936,1,-0.198,-0.0447,-0.0509
TP53,SID135620665,-0.832,0.841,-0.246,-0.192,-0.0477
BCOR,SID135620845,0.936,1,-0.193,-0.0447,-0.00372
DDR1,SID152155868,0.936,1,-0.198,-0.0447,-0.0382
ETNK2,SID56478982,-0.472,0.873,-0.101,0.072,-0.0288
PACSIN1,SID56479194,-0.0327,0.913,-0.12,0.0617,0.0495
PIM1,SID56478736,-1.48,0.782,0.0572,-0.00707,0.0181
IRAK3,SID56478864,0.367,0.949,0.0616,0.095,0.121
PRKACA,SID135620859,0.25,0.938,-0.137,0.0503,-0.0303
RPS6KL1,SID152155635,-1.51,0.78,0.0347,-0.0995,0.0519
AMER1,SID135623077,0.936,1,0.0766,-0.0338,0.0552
PFKFB2,SID135621246,0.205,0.934,-0.11,-0.0789,0.111
MED24,SID152152726,-1.54,0.777,-0.267,-0.109,-0.169
LYN,SID135620625,0.936,1,0.00781,-0.0447,0.0612
VRK3,SID135620981,-0.238,0.894,-0.282,-0.077,-0.15
